Assay results: PubChem BioAssay AID662 (National Center for Advancing Translational Sciences (NCATS), 2007)
The other results are listed elsewhere or left out. Further columns of the screen follow, without active or inactive calls. Compounds called inactive in the main read-out are mostly missing here. Potencies come from curve fits of mixed quality, noted in brackets.

Test: Cell signaling CRE-BLA (Fsk stim)
Settings: CHO CRE-bla reporter (cAMP response element driving beta-lactamase), forskolin EC10, beta-lactamase ratio; measured here: 460 nm blue channel
Summary of the method: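 CRE-bla CHO reporter cells treated with compound titration plus EC10 NKH 477 (water-soluble forskolin), incubated 3 h at 37 °C; CCF4 loading 2 h at room temperature, 460/530 nm emission ratio read, AC50 values derived for positive or negative modulators.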

Row | Structure (SMILES) | AC50
1 | CCCC[P+](CCCC)(CCCC)Cc1ccc(NC(=O)[C@@H](Cc2ccc3ccccc3c2)NC(=NC2CCCCC2)NC2CCCCC2)cc1 | 25.1 µM [falling, partial curve, poor fit]
2 | CC(=O)CCS(=O)(=O)c1ccc(C)c(C)c1 | 12.6 µM [falling, single point]
3 | CN(C)c1ccc2c(c1)OC(N)=C(C#N)C2c1cccc(F)c1 (stereo not drawn) | 1.26 µM [rising, partial curve]
4 | O=C1C2C3C=CC(C3)C2C(=O)N1Cc1ccccc1 (stereo not drawn) | 0.501 µM [rising, full curve]
5 | Cc1nn(C)cc1CNC(=O)C1C2CCC(O2)C1C(=O)O (stereo not drawn) | 12.6 µM [rising, single point]
6 | CCc1ccc2[nH]c(=O)c(CN(CCCN3CCOCC3)C(=O)Nc3ccccc3)cc2c1 | 10 µM [rising, partial curve]
7 | CN1CCN(CCCN2c3ccccc3Sc3ccc(S(=O)(=O)N(C)C)cc32)CC1 | 12.6 µM [rising, partial curve]
8 | Cn1c(=O)c2c(nc(CN3CCN(c4ccccc4)CC3)n2Cc2c(F)cccc2Cl)n(C)c1=O | 0.316 µM [rising, full curve, poor fit]
9 | CCC(=O)n1nc(NCc2ccc(OC)c(OC)c2)nc1NCc1ccc(OC)c(OC)c1 | 3.98 µM [rising, partial curve]
10 | CCn1c(=O)cc(C(=O)OC)sc1=Nc1ccc(F)c(F)c1 | 12.6 µM [falling, single point]
11 | N#CC(C(=O)NCCc1ccccc1)c1nc2ccccc2nc1N1CCOCC1 (stereo not drawn) | 15.8 µM [rising, single point]
12 | Cc1cnc(C(=O)Nc2ccccc2C(=O)N2CCOCC2)cn1 | 0.00316 µM [falling, full curve, poor fit]
13 | CCOC(=O)c1c(NC(=O)c2nn(CC)cc2Br)sc(C)c1C | 3.16 µM [rising, full curve]
14 | Cc1cccc(CN2CCN(CC(=O)NCCCN3CCCC3=O)C2=O)c1 | 0.00398 µM [falling, full curve, poor fit]
15 | COc1ccc(N=CC2=C(O)CCCC2=O)cc1 | 10 µM [falling, single point]
16 | COc1ccccc1N1CCN(C(=O)Cc2cccs2)CC1 | 0.251 µM [rising, partial curve]
17 | CCOc1ccccc1C(=O)Nc1nncs1 | 10 µM [rising, partial curve]
18 | COc1ccc2c(c1)c(=O)c(Br)c(C)n2Cc1ccccc1 | 5.01 µM [rising, partial curve]
19 | Cc1ccccc1OCC(=O)Nc1ccccc1N1CCOCC1 | 15.8 µM [rising, partial curve]
20 | O=C(CSc1nnc(NC(=O)C2CCC2)s1)Nc1ccc(N2CCOCC2)cc1 | 25.1 µM [falling, single point]
21 | CCOC(=O)c1c(C)c(C(=O)NCc2ccccn2)c(C)n1CC | 20 µM [rising, single point]
22 | Cc1nn2c(N3CCCC3)cc(C(C)C)nc2c1-c1ccccc1 | 0.01 µM [rising, full curve, poor fit]
23 | CCOc1cc(-c2c(C#N)c(N)nc3c2CCCC3C)ccc1O (stereo not drawn) | 5.01 µM [rising, partial curve]

5 entries drawn at random from the list so far, as already listed:
Row | Structure (SMILES) | AC50
22 | Cc1nn2c(N3CCCC3)cc(C(C)C)nc2c1-c1ccccc1 | 0.01 µM [rising, full curve, poor fit]
19 | Cc1ccccc1OCC(=O)Nc1ccccc1N1CCOCC1 | 15.8 µM [rising, partial curve]
3 | CN(C)c1ccc2c(c1)OC(N)=C(C#N)C2c1cccc(F)c1 (stereo not drawn) | 1.26 µM [rising, partial curve]
23 | CCOc1cc(-c2c(C#N)c(N)nc3c2CCCC3C)ccc1O (stereo not drawn) | 5.01 µM [rising, partial curve]
20 | O=C(CSc1nnc(NC(=O)C2CCC2)s1)Nc1ccc(N2CCOCC2)cc1 | 25.1 µM [falling, single point]

Later entries:

Row | Structure (SMILES) | AC50
24 | O=C(c1cc2ccccc2c(=O)o1)N1CCc2ccccc2C1 | 10 µM [falling, partial curve, poor fit]
25 | COc1cc2c(cc1NC(=O)CSc1nnc(Cc3cccs3)n1C)oc1ccccc12 | 20 µM [rising, partial curve, poor fit]
26 | CCOc1ccccc1-n1c(COc2ccccc2)nnc1SCC(N)=O | 0.126 µM [falling, single point]
27 | CCOC(=O)c1c(NC(=O)CSc2nnnn2C)sc(CC)c1C | 15.8 µM [rising, single point]
28 | CC(=O)Nc1ccc(C(=O)CSc2nnc3scc(-c4ccccc4)n23)cc1 | 7.94 µM [rising, partial curve]
29 | COC(=O)c1cc2c(=O)n3ccccc3nc2n(C(C)C)c1=N | 6.31 µM [rising, partial curve]
30 | O=c1[nH]c2cc3c(cc2cc1CN(Cc1nnnn1CC1CCCO1)C1CCCC1)OCO3 (stereo not drawn) | 12.6 µM [rising, single point]
31 | O=c1c(-c2cc(F)cc(F)c2)nc2cnc(N3CCOCC3)nc2n1CCc1ccccc1 | 2 µM [rising, partial curve]
32 | COCCn1c(=O)c(C)nc2cnc(Nc3cccc(OC)c3)nc21 | 12.6 µM [rising, partial curve]
33 | Cc1cc(N2CCOCC2)nc(NCc2ccccc2)n1 | 0.794 µM [falling, full curve]
34 | CC1Cc2nc(SCC(=O)Nc3nccs3)n(Cc3ccccc3)c(=O)c2S1 (stereo not drawn) | 12.6 µM [rising, partial curve]
35 | CCCCS(=O)CC(O)COc1ccc(C(C)(C)C)cc1 (stereo not drawn) | 0.00316 µM [falling, full curve]
36 | Nc1ccc(CN2CCN(c3ccc4ccccc4n3)CC2)cc1 | 10 µM [falling, partial curve]
37 | CCOC(=O)Cn1cnc2c(C#N)c3n(c2c1=O)CCCCC3 | 15.8 µM [rising, single point]
38 | COc1ccccc1CN1C(=O)CCC1(C)C(=O)NCc1cccnc1 (stereo not drawn) | 0.251 µM [rising, full curve]
39 | Cc1cc(-n2nnc3ccccc32)nc2ccccc12 | 5.01 µM [rising, full curve, poor fit]
40 | COc1cc(C2C(C#N)=C(N)Oc3cc(N(C)C)ccc32)cc2c1OCO2 (stereo not drawn) | 1.26 µM [rising, partial curve]
41 | O=C(c1cc2nc(-c3ccco3)cc(C(F)(F)F)n2n1)N1CCN(c2ccccn2)CC1 | 12.6 µM [rising, single point]
42 | COC(=O)C(C)Sc1nc2c(c(=O)[nH]c(=O)n2C)n1CCC(C)C (stereo not drawn) | 10 µM [rising, single point]
43 | COc1ccc(Cl)cc1NC(=O)CN(C)C(C)C(=O)NCC1CCCCC1 (stereo not drawn) | 3.16 µM [falling, single point]
44 | COc1cc(C)c2occ(/C(C)=N\O)c2c1 | 12.6 µM [rising, partial curve]
45 | CCOC(=O)c1c(C)n(OCc2ccccc2)c2ccc3nonc3c12 | 10 µM [rising, partial curve]
46 | O=C(CSc1nc2ccccc2c(=O)[nH]1)Nc1ccc(S(=O)(=O)N2CCCC2)cc1 | 25.1 µM [rising, single point]

Row | Structure (SMILES) | AC50
47 | CN(C)c1nc(-c2ccc3c(c2)OCO3)nc2ccccc12 | 10 µM [rising, partial curve]
48 | COc1ccc(CNc2nc(-c3cccnc3)nc3ccccc23)c(OC)c1 | 3.98 µM [rising, partial curve, poor fit]
49 | Cc1ccc(C)c(S(=O)(=O)Nc2ccc(S(=O)(=O)Nc3onc(C)c3C)cc2)c1 | 12.6 µM [falling, single point]
50 | CCC(C)[C@@H](NC(=O)OC(C)(C)C)c1nnc(S(=O)(=O)Cc2cccc(C)c2)o1 (stereo partly drawn) | 5.01 µM [falling, full curve]
51 | COC(=O)c1cc2c(s1)-c1ccccc1OC2 | 25.1 µM [rising, single point]
52 | COc1ccccc1NC(=O)Cn1cnc2c(cnn2-c2ccc(C)c(C)c2)c1=O | 15.8 µM [rising, partial curve]
53 | COc1ccc(CCNC(=O)CN2CCCc3ccccc32)cc1OC | 3.16 µM [falling, partial curve]
54 | CCc1nnc(NC(=O)CSc2nnc(Cc3cccn3C)n2CCOC)s1 | 10 µM [rising, partial curve]
55 | CON(C)c1nc(OCCNC(=O)COc2ccc(Cl)cc2C)nc(N(C)C)n1 | 5.01 µM [rising, partial curve]
56 | COc1ccc(-c2ccc(=O)n(Cc3cc(=O)n4ccccc4n3)n2)cc1 | 7.94 µM [rising, partial curve]
57 | CCc1cc2c3c(c(=O)oc2cc1O)CCCC3 | 12.6 µM [rising, single point]
58 | Cn1ncc(C#N)c1/N=C/N1CCCCC1 | 0.00316 µM [falling, full curve, poor fit]
59 | CCOC(=O)CN(C(=O)CSc1nnc2c(n1)[nH]c1ccc(OC)cc12)c1ccc(F)cc1 | 7.94 µM [rising, partial curve]
60 | COC(=O)c1ccc(OCC(=O)c2ccc(O)cc2O)cc1 | 7.94 µM [falling, partial curve]
61 | c1cncc(-c2nc3ccccc3o2)c1 | 0.0251 µM [falling, full curve]
62 | CCN(CC)CCOC(=O)C1(c2ccc([N+](=O)[O-])cc2)CCCC1 | 20 µM [falling, partial curve, poor fit]
63 | Cc1cc(C)n(-c2nc(C)nc(NCc3ccccc3)n2)n1 | 10 µM [rising, partial curve]
64 | O=C1c2oc3ccccc3c(=O)c2C(c2cccc(F)c2)N1CCCO (stereo not drawn) | 15.8 µM [falling, partial curve]
65 | O=C1[C@@H]2C(Cc3ccc(O)cc3)NC3(C(=O)Nc4ccc(F)cc43)[C@@H]2C(=O)N1c1ccc(F)cc1 (stereo partly drawn) | 20 µM [falling, partial curve, poor fit]
66 | COc1ccc(-c2nn(C)c(=O)c3ccccc23)cc1CNS(C)(=O)=O | 25.1 µM [rising, single point]
67 | CCCOC(=O)c1ccc(Oc2cn[nH]c2-c2ccc(OCC)cc2O)cc1 | 10 µM [falling, partial curve]
68 | CCN(CC)c1ccc2cc(C(=O)Nc3ccc(-n4cnnn4)c(OC)c3)c(=O)oc2c1 | 12.6 µM [rising, partial curve]
